Assay results reported in PubChem BioAssay AID330 (DTP/NCI, 2004).
The list does not hold the whole screen: it is rich in T/C values a quarter to a half above the control, in often repeated tests (any T/C) and in doses without a T/C. Other doses and runs of a compound stand elsewhere. T/C: endpoint of the treated group in % of that of the vehicle group. Some doses have a count of surviving animals in place of a T/C: the source holds a T/C of zero for them, seemingly a mark for toxic or unscored doses. Some survivor counts are full or nearly so, which does not show that the dose was tolerated: survival well below the control is almost never listed, so the zero probably covers shortened survival too. Counts of survivors are from the toxicity check (mostly the fifth day) where no day follows; animals may have died later. Schedule codes are those of the source, read here as Q, the interval in days (D) or hours (H), X, the number of doses. Counts like (3×) say how often a value occurs here. Some entries hold several experiments; their values stand side by side, smallest first. Where survival is the endpoint, this PubChem deposit counts one and a half times the control or more as active, and values a quarter to a half above the control carry no call in these data; other NCI protocols may use other cut-offs. Some T/C values carry the count of animals alive at the toxicity check (mostly the fifth day); without a count, all were alive then.

Tested on: P388 leukemia ip, CD2F1 mice, survival T/C
Experiment: NCI In Vivo Anticancer Drug Screen. Data for tumor model P388 Leukemia (intraperitoneal) in CD2F1 (CDF1) mice
Conditions: T/C endpoint: median survival time, higher T/C = longer survival
[1] = dose: 25.0 mg/kg/injection, schedule: Q01DX009 (ip), vehicle: Klucel (hydroxypropylcellulose) (HPC)
[2] = dose: 50.0 mg/kg/injection, schedule: Q01DX009 (ip), vehicle: Klucel (hydroxypropylcellulose) (HPC)
[3] = dose: 50.0 mg/kg/injection, schedule: Q01DX009 (ip), vehicle: saline with Tween-80
[4] = dose: 100.0 mg/kg/injection, schedule: Q01DX009 (ip), vehicle: Klucel (hydroxypropylcellulose) (HPC)
[5] = dose: 100.0 mg/kg/injection, schedule: Q01DX009 (ip), vehicle: saline with Tween-80
[6] = dose: 200.0 mg/kg/injection, schedule: Q01DX009 (ip), vehicle: saline with Tween-80
[7] = dose: 100.0 mg/kg/injection, schedule: Q01DX005 (ip), vehicle: saline with Tween-80
[8] = dose: 200.0 mg/kg/injection, schedule: Q01DX005 (ip), vehicle: saline with Tween-80
[9] = dose: 120.0 mg/kg/injection, schedule: Q01DX005 (ip), vehicle: saline
[10] = dose: 240.0 mg/kg/injection, schedule: Q01DX005 (ip), vehicle: saline
[11] = dose: 50.0 mg/kg/injection, schedule: Q01DX005 (ip), vehicle: Klucel (hydroxypropylcellulose) (HPC)
[12] = dose: 100.0 mg/kg/injection, schedule: Q01DX005 (ip), vehicle: Klucel (hydroxypropylcellulose) (HPC)
[13] = dose: 12.5 mg/kg/injection, schedule: Q04DX002 (ip), vehicle: saline with Tween-80
[14] = dose: 25.0 mg/kg/injection, schedule: Q04DX002 (ip), vehicle: saline with Tween-80
[15] = dose: 50.0 mg/kg/injection, schedule: Q04DX002 (ip), vehicle: saline with Tween-80
[16] = dose: 25.0 mg/kg/injection, schedule: Q01DX005 (ip), vehicle: saline with Tween-80
[17] = dose: 50.0 mg/kg/injection, schedule: Q01DX005 (ip), vehicle: saline with Tween-80
[18] = dose: 200.0 mg/kg/injection, schedule: Q01DX009 (ip), vehicle: Klucel (hydroxypropylcellulose) (HPC)
[19] = dose: 100.0 mg/kg/injection, schedule: Q04DX002 (ip), vehicle: saline with Tween-80
[20] = dose: 100.0 mg/kg/injection, schedule: Q01DX009 (ip), vehicle: saline
[21] = dose: 200.0 mg/kg/injection, schedule: Q01DX009 (ip), vehicle: saline
[22] = dose: 240.0 mg/kg/injection, schedule: Q01DX005 (ip), vehicle: Klucel (hydroxypropylcellulose) (HPC)

In the case of O=[N+]([O-])c1ccc(N/N=C/c2ccc(Cl)cc2)nc1, the survivor count [1] was 6 of 6, the survivor count (dose: 25.0 mg/kg/injection, schedule: Q01DX009 (ip), vehicle: saline with Tween-80) was 6 of 6 and the survivor count [2] was 6 of 6. The survivor count [3] was 6 of 6 (2×), the survivor count [4] was 6 of 6 and the survivor count [5] was 6 of 6 (2×).
For C=CC(=NC(C)(C)C)Nc1ccccc1, the survivor count [3] was 2 of 6, the survivor count [5] was 0 of 6 and the survivor count [6] was 0 of 6.
In the case of Cc1ccc(C(=Nc2ccccc2)N=P(c2ccccc2)(c2ccccc2)c2ccccc2)cc1, the T/C [7] was 125 % of control and the survivor count [8] was 4 of 6 and 6 of 6.
For CC1CCC(C(C)C)C(OC(=O)c2cccc[n+]2C)C1 (configuration not stated), the survivor count (dose: 60.0 mg/kg/injection, schedule: Q01DX005 (ip), vehicle: saline) was 0 of 6, the survivor count [9] was 0 of 6 and the survivor count [10] was 0 of 6.
For CC(=O)CCC(=O)c1ccoc1, the survivor count [11] was 0 of 5 and the survivor count [12] was 0 of 5.
For O=C1CCCCC1C(=O)C(F)(F)F (configuration not stated), the survivor count (dose: 200.0 mg/kg/injection, schedule: Q01DX009 (ip), vehicle: saline + Tween-80 + alcohol) was 3 of 6.
In the case of Nc1ccc(F)cc1S, the T/C [3] was 125 and 134 % of control, the T/C [5] was 129 % of control and the T/C [6] was 139 % of control. For the same compound, the survivor count [6] was 5 of 6.
In the case of COc1cc2c[n+](C)c3c4cc(OC)c(OC)cc4c(OC)cc3c2cc1OC, the T/C (dose: 25.0 mg/kg/injection, schedule: Q01DX005 (ip), vehicle: Klucel (hydroxypropylcellulose) (HPC)) was 125 % of control, the T/C [11] was 132 % of control and the T/C (dose: 50.0 mg/kg/injection, schedule: Q01DX005 (ip), vehicle: saline) was 125 % of control [5 of 6 alive]. The T/C [12] was 127 % of control [5 of 6 alive] and the survivor count (dose: 200.0 mg/kg/injection, schedule: Q01DX005 (ip), vehicle: Klucel (hydroxypropylcellulose) (HPC)) was 3 of 6.
With Cc1nc(N=C(N)N)nc2ccc3ccccc3c12 the survivor count (dose: 12.5 mg/kg/injection, schedule: Q01DX009 (ip), vehicle: Klucel (hydroxypropylcellulose) (HPC)) was 0 of 6, the survivor count [1] was 3 of 6 and the survivor count [2] was 1 of 6. The survivor count [4] was 0 of 6.
For O=C1NC(=O)/C(=C/C=C/c2ccccc2)S1, the T/C [5] was 128 and 131 % of control and the T/C [6] was 130 and 138 % of control [4 of 6 alive].
In the case of CN1C(=O)C23CC4=CC=CC(O)C4N2C(=O)C1(CO)SS3 (configuration not stated), the survivor count [13] was 0 of 6, the survivor count [14] was 0 of 6 and the survivor count [15] was 0 of 6.
In the case of O=C1c2cccc3cccc(c23)C(=O)N1c1ncn[nH]1, the survivor count [16] was 6 of 6, the survivor count [17] was 5 of 6 and the survivor count [7] was 6 of 6.
For COc1cccc2c1C(=N)c1c(O)c3c(c(O)c1C2=O)C[C@@](O)(C(O)CO)C[C@@H]3OC1CC(N2CCOCC2)C(O)C(C)O1 (some centres not stated), the T/C (dose: 6.25 mg/kg/injection, schedule: Q04DX003 (ip), vehicle: water) was 126 % of control, the T/C (dose: 12.5 mg/kg/injection, schedule: Q04DX003 (ip), vehicle: water) was 148 % of control and the T/C (dose: 25.0 mg/kg/injection, schedule: Q04DX003 (ip), vehicle: water) was 127 % of control. For the same compound, the T/C (dose: 37.5 mg/kg/injection, schedule: Q04DX003 (ip), vehicle: water) was 125 % of control and the T/C (dose: 75.0 mg/kg/injection, schedule: Q04DX003 (ip), vehicle: water) was 131 % of control.
COc1ccc(Cc2nnc3nc(OC)c(-c4ccc(OC)cc4)n3n2)cc1 was tested, and the survivor count [7] was 6 of 6.
In the case of CC1(C)C=C(NC(=O)N2CC2)C(C)(C)N1O, the survivor count [5] was 3 of 6 and the survivor count [6] was 0 of 6.
CCS/C(=C/[P+](c1ccccc1)(c1ccccc1)c1ccccc1)SC was tested, and the survivor count (dose: 12.5 mg/kg/injection, schedule: Q01DX005 (ip), vehicle: saline with Tween-80) was 6 of 6, the survivor count [16] was 6 of 6 and the survivor count [17] was 2 of 6. The survivor count [7] was 0 of 5 and the survivor count [8] was 0 of 6.
For CCSc1nc2ccc(N3C(=O)C=CC3=O)cc2s1, the survivor count [2] was 0 of 6, the survivor count [4] was 0 of 6 and the survivor count [18] was 0 of 6.
For O=C1C=CC(=O)C1=Cc1ccc(O)cc1, the survivor count [14] was 0 of 6, the survivor count [15] was 0 of 6 and the survivor count [19] was 0 of 6.
With C[C@@]12N[C@H]3S[C@]1(C)c1ccccc1N2C[C@@H]3C#N the survivor count [7] was 5 of 5 and the survivor count [8] was 5 of 5.
With CCCN=C(c1ccccc1C=O)c1c2ccccc2cn1CCC the survivor count (dose: 60.0 mg/kg/injection, schedule: Q01DX005 (ip), vehicle: saline + Tween-80 + alcohol) was 1 of 6, the survivor count (dose: 120.0 mg/kg/injection, schedule: Q01DX005 (ip), vehicle: saline + Tween-80 + alcohol) was 0 of 6 and the survivor count (dose: 240.0 mg/kg/injection, schedule: Q01DX005 (ip), vehicle: saline + Tween-80 + alcohol) was 0 of 6.
CN1ON(c2ccc(Cl)c(Cl)c2)OC1=O was tested, and the survivor count [20] was 6 of 6 and the survivor count [21] was 6 of 6.
CCCCCCCCCCCCCCCCCCOC(=O)C(N)CCCCN (configuration not stated) was tested, and the survivor count [9] was 2 of 6 and the survivor count [10] was 0 of 6.
In the case of CN(C)c1ncnc2c1ncn2C1OC(CO)C(N)C1O (configuration not stated), the T/C (dose: 33.0 mg/kg/injection, schedule: Q01DX009 (ip), vehicle: saline sonified) was 131 % of control [5 of 6 alive], the T/C (dose: 50.0 mg/kg/injection, schedule: Q01DX009 (ip), vehicle: saline sonified) was 136 % of control and the T/C [3] was 127 % of control. The survivor count [5] was 6 of 6, the survivor count [20] was 5 of 6 and the survivor count [6] was 4 of 6. The survivor count (dose: 400.0 mg/kg/injection, schedule: Q01DX009 (ip), vehicle: saline with Tween-80) was 2 of 6.
With C/C(=N\Nc1ccccn1)c1ccccn1 the survivor count [17] was 1 of 6, the survivor count [7] was 0 of 6 and the survivor count [8] was 0 of 6.
In the case of S=c1[nH]ccn1-c1c(Cl)cccc1Cl, the survivor count [18] was 6 of 6.
COc1cc2c(c(=O)c3ccccc3n2C)c2c1c(=O)c1ccccc1n2C was tested, and the survivor count [22] was 1 of 6.
With Cc1[nH]ccc(=O)c1O the T/C (dose: 50.0 mg/kg/injection, schedule: Q01DX009 (ip), vehicle: saline) was 129 % of control, the T/C (dose: 64.0 mg/kg/injection, schedule: Q01DX009 (ip), vehicle: saline with Tween-80) was 133 % of control and the T/C [20] was 125 % of control. For the same compound, the T/C (dose: 128.0 mg/kg/injection, schedule: Q01DX009 (ip), vehicle: saline with Tween-80) was 135 % of control, the T/C [21] was 133 % of control and the T/C (dose: 256.0 mg/kg/injection, schedule: Q01DX009 (ip), vehicle: saline with Tween-80) was 132 % of control. The T/C (dose: 400.0 mg/kg/injection, schedule: Q01DX009 (ip), vehicle: saline) was 144 % of control [5 of 6 alive].
In the case of CCOC(=O)C1=C(C(=O)c2cccc3ccccc23)C(c2cccc([N+](=O)[O-])c2)C(C(=O)c2cccc3ccccc23)=C(C(=O)OCC)N1, the survivor count (dose: 60.0 mg/kg/injection, schedule: Q01DX005 (ip), vehicle: Klucel (hydroxypropylcellulose) (HPC)) was 6 of 6, the survivor count (dose: 120.0 mg/kg/injection, schedule: Q01DX005 (ip), vehicle: Klucel (hydroxypropylcellulose) (HPC)) was 6 of 6 and the survivor count [22] was 5 of 6.
In the case of CNC(=O)OCc1c2ccncc2c(C)c2c1[nH]c1ccccc12, the T/C [13] was 145 % of control, the survivor count [15] was 6 of 6 and the survivor count [19] was 6 of 6.
Cn1c(-c2ccccc2)cc2cc(CN)ccc21 was tested, and the survivor count [18] was 0 of 6.
